From PubChem BioAssay AID1671190 (National Center for Advancing Translational Sciences (NCATS), 2021)
Hit rate of the full screen: of about 580,000 compounds, about 6,100 (1.1%) were called active. Inconclusive means that the source gave no clear call. Such entries were picked first, then a sample of the others. Calls follow the shape of the dose curve; as a rule, active = well fitted inhibition curve with a large enough effect; inconclusive = small, poorly fitted or top-dose-only effect, or another doubt; inactive = no such curve, though single readings can be large or run the other way. Potencies of inconclusive entries are doubtful fits and often do not repeat.

Protein sequences, listed by entry. Tags and fused reporters are not part of them. Lines headed by an entry give the natural chain unless they say otherwise; changes in a name come on top.
UniProt P18054: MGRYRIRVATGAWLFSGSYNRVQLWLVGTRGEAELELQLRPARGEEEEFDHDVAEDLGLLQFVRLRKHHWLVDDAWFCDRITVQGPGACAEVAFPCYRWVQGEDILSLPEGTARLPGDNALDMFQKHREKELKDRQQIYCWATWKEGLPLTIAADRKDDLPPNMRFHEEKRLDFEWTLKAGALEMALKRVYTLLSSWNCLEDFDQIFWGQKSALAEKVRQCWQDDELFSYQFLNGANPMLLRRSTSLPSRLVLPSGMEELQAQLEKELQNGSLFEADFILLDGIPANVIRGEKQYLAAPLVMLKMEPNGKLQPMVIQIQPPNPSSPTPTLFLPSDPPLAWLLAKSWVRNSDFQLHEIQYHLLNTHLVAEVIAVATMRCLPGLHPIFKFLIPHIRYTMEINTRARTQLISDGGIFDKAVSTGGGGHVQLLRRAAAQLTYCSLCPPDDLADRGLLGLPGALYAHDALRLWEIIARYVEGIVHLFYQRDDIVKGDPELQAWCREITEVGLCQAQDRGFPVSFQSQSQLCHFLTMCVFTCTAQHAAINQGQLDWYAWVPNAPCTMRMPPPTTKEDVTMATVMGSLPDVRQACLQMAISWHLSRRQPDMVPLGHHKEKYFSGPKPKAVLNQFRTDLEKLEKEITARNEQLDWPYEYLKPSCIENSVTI

Each molecule was assayed against Polyunsaturated fatty acid lipoxygenase ALOX12 (Homo sapiens) (UniProt P18054) (assay: Primary qHTS assay for inhibitors of human arachidonate 12S-lipoxygenase (ALOX12): Round 2). Details: purified 12hLO, xylenol orange hydroperoxide absorbance; activity change, negative = inhibition: at 108 µM (top of the series) unless noted.
Outline: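 Hydroperoxide product was detected by ferrous iron/xylenol orange as the 573 to 405 nm absorbance ratio. Arachidonic acid at 40 uM (final) was turned over for 30 min at room temperature by 150 nM human 12hLO, pH 7.0 Hepes buffer, after 15 min compound preincubation.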
% is scaled to controls: 0 for no effect and ±100 for the full control effect; potency is read from the fitted curve at half-maximal effect.

Row | SMILES | Potency | activity change, negative = inhibition
1 | O=C(NC1CCCc2ccccc21)C(c1ccccc1)c1ccccc1 (configuration not stated) | inconclusive: 50.1 µM [inhibitor, partial curve, poor fit] | –
2 | CCOc1ccc(N(C(C)C(=O)NCc2ccc(Cl)cc2Cl)S(C)(=O)=O)cc1 (configuration not stated) | inconclusive: 44.7 µM [inhibitor, partial curve, poor fit] | –
3 | C=C(C)C(=O)OCC(O)COc1ccc(C(C)(C)c2ccc(OCC(O)COC(=O)C(=C)C)cc2)cc1 (configuration not stated) | inactive | –
4 | CC(CC(=O)Nc1ncc([N+](=O)[O-])s1)c1ccccc1 (configuration not stated) | inconclusive: 79.4 µM [inhibitor, partial curve, poor fit] | –
5 | COc1ccc(NC(=S)NNC(=S)Nc2cccc(C(F)(F)F)c2)cc1 | inconclusive: 35.5 µM [inhibitor, partial curve, poor fit] | –
6 | COc1ccc(CN2CC3(CCN(S(=O)(=O)Cc4ccccc4)CC3)C2=O)cc1 | inactive | –
7 | COc1ccccc1C1CCN(Cc2ccc3ccccc3c2)CC1 | active: 14.1 µM | –
8 | Cn1nccc1C(=O)Nc1sc2c(c1C(N)=O)CCCC2 | inactive | –
9 | O=S(=O)(c1ccccc1)N1CCN(Cc2cccc(Cl)c2)CC1 | inactive | –
10 | O=C(O)CCCOc1cccc(Br)c1 | inactive | –
11 | Cc1c(C(=O)O)sc2ccsc12 | inconclusive: 28.2 µM [inhibitor, partial curve, poor fit] | –
12 | Cc1cc(=O)oc2cc(OCc3ccc(C(=O)OCC(=O)Nc4ccc(N(C)C)cc4)cc3)ccc12 | inconclusive: 79.4 µM [inhibitor, partial curve, poor fit] | –
13 | COc1ccc(-c2nnc(SCc3cn4cccc(C)c4n3)o2)cc1OC | inconclusive: 11.2 µM [inhibitor, full curve, poor fit] | –
14 | Cc1ccc(-n2c(C3CCN(C(=O)Cc4ccccc4)CC3)n[nH]c2=O)cc1 | inconclusive: 31.6 µM [inhibitor, partial curve] | –
15 | COc1ccc(-n2nc3c(c2NC(=O)c2cc4ccccc4o2)CS(=O)(=O)C3)cc1 | inconclusive: 50.1 µM [inhibitor, partial curve, poor fit] | –
16 | CCOc1cc(Br)c(CC(=O)NC2CCCCCC2)cc1OCC | inconclusive: 39.8 µM [inhibitor, partial curve, poor fit] | –
17 | COc1ccc(N2CC(c3noc(-c4cccc(OC)c4)n3)CC2=O)cc1 (configuration not stated) | inactive | –
18 | FC(F)(F)c1ccccc1-c1nccc(NCc2cccs2)n1 | inconclusive: 28.2 µM [inhibitor, partial curve] | –
19 | Cc1ccc(C(O)CNC(=O)C2CCC2)cc1 (configuration not stated) | inconclusive: 126 µM [inhibitor, partial curve, poor fit] | –
20 | Cc1cc(Cl)ccc1NNC(=O)CCc1ccccc1 | inconclusive: 112 µM [inhibitor, single point] | –
21 | CC1(C(=O)NS(=O)(=O)c2ccc(C#N)cc2)CCN1C(=O)CC1CCCCC1 (configuration not stated) | inconclusive: 44.7 µM [inhibitor, partial curve, poor fit] | –
22 | CC(=O)OC(COC1CC2CCC1(C)C2(C)C)C[N+]1(C)CCCCC1 (configuration not stated) | active: 12.6 µM | –
23 | COCCN1C=C2C(=O)C(C)(OC(=O)CCc3ccccc3)C(=O)C=C2C=C1c1ccc(C#N)cc1 (configuration not stated) | inactive | –

Two entries picked at random from the list so far:
Row | SMILES | Potency | activity change, negative = inhibition
22 | CC(=O)OC(COC1CC2CCC1(C)C2(C)C)C[N+]1(C)CCCCC1 (configuration not stated) | active: 12.6 µM | –
17 | COc1ccc(N2CC(c3noc(-c4cccc(OC)c4)n3)CC2=O)cc1 (configuration not stated) | inactive | –

Next part.

Row | SMILES | Potency | activity change, negative = inhibition
24 | COc1ccc(-c2nc(C(=O)N3CCN(c4ncccn4)CC3)n3ccccc23)cc1 | inconclusive: 2.82 µM [inhibitor, full curve] | –
25 | Cc1ccc(S(=O)(=O)NCC2CCC(C(=O)NCC(=O)N3CCc4ccccc4C3)CC2)cc1 (configuration not stated) | inconclusive: 44.7 µM [inhibitor, partial curve, poor fit] | –
26 | COc1ccc(OC)c(-c2csc(NC(=O)Cc3ccccc3)n2)c1 | inactive | –
27 | COC(=O)Cn1c(=O)c2c(nc(-n3nc(C)cc3C)n2CC(C)C)n(C)c1=O | inactive | –
28 | CNC(=S)N/N=C/c1ccc(-c2ccc(Cl)c([N+](=O)[O-])c2)o1 | inactive | –
29 | CCOC(=O)CCc1c(C)nc2cc(-c3ccccc3OC)[nH]n2c1=O | inconclusive: 126 µM [inhibitor, single point] | –
30 | COc1ccc(CCNC(=O)C(C)n2nc(C)c3c(C)n(-c4ccc(C)cc4)nc3c2=O)c(OC)c1 (configuration not stated) | inactive | –
31 | C[C@@H]1CN([C@@H](C)CO)S(=O)(=O)c2ccc(C#CC3CCCCC3)cc2O[C@@H]1CN(C)Cc1cccnc1 | active: 14.1 µM | –
32 | N#CC1=C(c2ccccc2)C(O)(c2ccccc2)NC1=O (configuration not stated) | inactive | –
33 | COCCCNc1oc(/C=C/c2cc(OC)c(OC)c(OC)c2)nc1C#N | inconclusive: 2.82 µM [inhibitor, full curve, poor fit] | –
34 | O=C(Nc1nccs1)c1cccnc1Cl | inconclusive: 28.2 µM [inhibitor, partial curve, poor fit] | –
35 | Cc1nc(NS(=O)(=O)c2ccc(Cl)s2)c2c3c(sc2n1)CCCC3 | – | inconclusive: -31.4% [inhibitor]
36 | C=CCSc1nc2c(c(=O)[nH]c(=O)n2C)n1CCOC | inconclusive: 44.7 µM [inhibitor, partial curve, poor fit] | –
37 | CCN(CC)C(=O)c1sc2c(c1C)c(=O)n(-c1ccc(Cl)c(Cl)c1)c(=O)n2Cc1ccccc1C#N | inconclusive: 126 µM [inhibitor, partial curve, poor fit] | –
38 | CC(C)N(C(=O)Cn1c(CN2CCCCCC2)nc2ccccc21)c1ccccc1 | inactive | –
39 | CCCCCCSc1ccc([C@H]2N[C@@](C)(C(=O)OC)[C@H]3C(=O)N(CC)C(=O)[C@@H]23)cc1 | inconclusive: 35.5 µM [inhibitor, partial curve, poor fit] | –
40 | O=C(NNc1cc(Br)c(O)c(Br)c1)c1ccccc1 | inconclusive: 56.2 µM [inhibitor, partial curve, poor fit] | –
41 | COc1ccc(CC(=O)NNC(=O)c2cc(Cl)ccc2OC)cc1 | inactive | –
42 | O=C1C(=O)N(CCN2CCOCC2)C(c2cccc(Cl)c2)/C1=C(/O)c1ccc2c(c1)OCO2 (configuration not stated) | inconclusive: 35.5 µM [inhibitor, partial curve, poor fit] | –
43 | O=C(CCl)Nc1ccccc1Sc1ccc(Cl)cc1 | inactive | –
44 | C=CCn1c(N2CCN(Cc3ccccc3)CC2)nc2c1c(=O)n(C)c(=O)n2C | inconclusive: 5.62 µM [inhibitor, partial curve, poor fit] | –
45 | CC1(C)C(=O)N(Cc2ccccc2)[C@H]2CN(Cc3ccc(C(=O)O)cc3)C[C@H]2[S+]1(=O)[O-] | inactive | –
46 | CCOC(=O)c1ccc(NC(=O)CS(=O)(=O)Cc2nc(-c3ccccc3C)oc2C)cc1 | inactive | –

Row | SMILES | Potency | activity change, negative = inhibition
47 | O=C(CCCCCBr)N1CCC(CC2CC(c3cccc(Br)c3)=NO2)(C(=O)NCC2CCCCC2)CC1 (configuration not stated) | inconclusive: 31.6 µM [inhibitor, partial curve] | –
48 | CCOc1ccccc1/C=c1\sc2ncnn2c1=O | inconclusive: 31.6 µM [inhibitor, partial curve] | –
49 | CCN1CCN(c2c(C=O)c(Cl)nc3ccc(OC)cc23)CC1 | inconclusive: 35.5 µM [inhibitor, single point] | –
50 | Cc1ccc(N2CCN(C(=O)c3c(C)oc4ncn(CC(C)C)c(=O)c34)CC2)c(C)c1 | inconclusive: 100 µM [inhibitor, partial curve, poor fit] | –
51 | Cc1ccc(C)c(N2CCN(C(=O)C3CCN(c4nc5ccc(C)cc5[nH]4)CC3)CC2)c1 | inconclusive: 56.2 µM [inhibitor, partial curve, poor fit] | –
52 | CCOC(=O)C(CC)Sc1nc2c(c(=O)[nH]c(=O)n2C)n1CCc1ccccc1 (configuration not stated) | – | inconclusive: -60.4% [inhibitor]
53 | Oc1nc(-c2ccc(Br)cc2)n2ccncc12 | inactive | –
54 | Cc1cccc(NC(=O)CSc2ncc3c(n2)-c2ccccc2N(Cc2ccc(F)cc2)S3(=O)=O)c1C | inconclusive: 100 µM [inhibitor, single point] | –
55 | Clc1cccc(C[n+]2cc(-c3ccccc3)n3c2CCC3)c1 | inactive | –
56 | Oc1cc(-c2csc3ccccc23)cc2c1OCCNC2 | inconclusive: 70.8 µM [inhibitor, partial curve, poor fit] | –
57 | O=C(C[C@H]1C/C=C\C[C@H](NC(=O)OCC2c3ccccc3-c3ccccc32)C(=O)O[C@@H](c2ccccc2)CNC1=O)NCCO | inactive | –
58 | CCNC(=O)[C@@H]1C[C@H](n2cc(CN(C)C(=O)OC)nn2)CN1 | inconclusive: 3.55 µM [inhibitor, full curve] | –
59 | N#C/C(=C(/O)c1cccs1)c1nnc2n1CCCCC2 | inactive | –
60 | CCOc1ccc(C(=O)CCN2CCCCCC2)cc1 | inactive | –
61 | CC(C)=C(/C(=C/CS(=O)(=O)c1ccc(C)cc1)S(=O)(=O)c1ccc(Br)cc1)S(=O)(=O)c1ccc(Br)cc1 | inconclusive: 7.08 µM [inhibitor, full curve, poor fit] | –
62 | Cc1nc2cc(-c3ccsc3-n3c(C)ccc3C)[nH]n2c(=O)c1Cl | inconclusive: 3.16 µM [inhibitor, full curve, poor fit] | –
63 | COc1ccccc1C(=O)N1CCCN(C)c2ccccc21 | inconclusive: 35.5 µM [inhibitor, partial curve, poor fit] | –
64 | O=C(CSc1nnc(-c2cccnc2)n1Cc1ccco1)c1ccc(Cl)cc1 | inconclusive: 44.7 µM [inhibitor, partial curve, poor fit] | –
65 | CC1CCN(CCCOc2ccc(Cl)cc2Br)CC1 | inconclusive: 7.08 µM [inhibitor, full curve] | –
66 | O=C(NCC(c1cccnc1)N1CCOCC1)C1CCCCC1 (configuration not stated) | inactive | –
67 | COC(=O)c1ccc(C2C3=C(CC(C)(C)CC3=O)Nc3cc4c(cc32)OCO4)cc1 (configuration not stated) | inconclusive: 89.1 µM [inhibitor, partial curve, poor fit] | –

Entries above containing a COOH group:
Row | SMILES | Potency | activity change, negative = inhibition
10 | O=C(O)CCCOc1cccc(Br)c1 | inactive | –
11 | Cc1c(C(=O)O)sc2ccsc12 | inconclusive: 28.2 µM [inhibitor, partial curve, poor fit] | –
45 | CC1(C)C(=O)N(Cc2ccccc2)[C@H]2CN(Cc3ccc(C(=O)O)cc3)C[C@H]2[S+]1(=O)[O-] | inactive | –
